PubChem BioAssay AID1259405 | NCATS | 2018
Screen: 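Silenced genes that increase secreted GFP made by CHO cells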 (primary screen). System: Chinese hamster CHO-K1 ovary cells with stable secreted eGFP expression. Reagent: single siRNA against mouse genes, 0.8 pmol siRNA per well (2 µl of 400 nM stock). Duration: 3 days. Measured: 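Percent of the per-plate non-targeting control median for intracellular GFP per well by laser scanning cytometry and for cell viability by ATP luminescence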. Direction: GFP, % of control: higher = more GFP per well, higher productivity; viability (ATP), % of control: higher = more viable cells (more ATP). Active means: 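a knock-down is called active if GFP reaches 120% or more of non-targeting control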.
The whole screen tested about 50,000 reagents; below is a part drawn at random. About 4,000 of all reagents (8%) were called active. 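Mouse siRNA library applied to hamster cells; one well for each siRNA.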 The numbers tell different reagents against one gene apart.

Which result is listed for Bend7 (BEN domain containing 7) #1?
GFP, % of control: 43.7; viability (ATP), % of control: 72.4; call: inactive

With Bend7 (BEN domain containing 7) #2, how do the results read?
GFP, % of control: 63.9; viability (ATP), % of control: 75.5; call: inactive

With Bend7 (BEN domain containing 7) #3, what was measured?
GFP, % of control: 9.26; viability (ATP), % of control: 10.8; call: inactive

Which result is listed for Knstrn (kinetochore-localized astrin/SPAG5 binding) #1?
GFP, % of control: 80.3; viability (ATP), % of control: 61.7; call: inactive

For Knstrn (kinetochore-localized astrin/SPAG5 binding) #2, what does the deposit list?
GFP, % of control: 79.1; viability (ATP), % of control: 70.8; call: inactive

For Knstrn (kinetochore-localized astrin/SPAG5 binding) #3, what does the deposit list?
GFP, % of control: 62.4; viability (ATP), % of control: 66.5; call: inactive

How did the screen score Nup153 (nucleoporin 153) #1?
GFP, % of control: 116; viability (ATP), % of control: 88.8; call: inactive

Which result is listed for Nup153 (nucleoporin 153) #2?
GFP, % of control: 105; viability (ATP), % of control: 103; call: inactive

With Sh2d2a (SH2 domain containing 2A) #1, how do the results read?
GFP, % of control: 58.4; viability (ATP), % of control: 85.1; call: inactive

For Sh2d2a (SH2 domain containing 2A) #2, what was measured?
GFP, % of control: 80.9; viability (ATP), % of control: 71.3; call: inactive

What is on record for Sh2d2a (SH2 domain containing 2A) #3?
GFP, % of control: 60.3; viability (ATP), % of control: 59.6; call: inactive

Which result is listed for Zfp668 (zinc finger protein 668) #1?
GFP, % of control: 48.3; viability (ATP), % of control: 50.6; call: inactive

For Zfp668 (zinc finger protein 668) #2, how do the results read?
GFP, % of control: 78.2; viability (ATP), % of control: 69.5; call: inactive

What is on record for Zfp668 (zinc finger protein 668) #3?
GFP, % of control: 83.1; viability (ATP), % of control: 86.9; call: inactive

For Fsd2 (fibronectin type III and SPRY domain containing 2) #1, what was measured?
GFP, % of control: 86.3; viability (ATP), % of control: 69.3; call: inactive

What is on record for Fsd2 (fibronectin type III and SPRY domain containing 2) #2?
GFP, % of control: 44.9; viability (ATP), % of control: 59.4; call: inactive

With Fsd2 (fibronectin type III and SPRY domain containing 2) #3, what does the deposit list?
GFP, % of control: 86.8; viability (ATP), % of control: 74.1; call: inactive

What is on record for Kdf1 (keratinocyte differentiation factor 1) #1?
GFP, % of control: 76; viability (ATP), % of control: 77.9; call: inactive

What did the screen give for Kdf1 (keratinocyte differentiation factor 1) #2?
GFP, % of control: 31.7; viability (ATP), % of control: 35.5; call: inactive

How did the screen score Kdf1 (keratinocyte differentiation factor 1) #3?
GFP, % of control: 50.9; viability (ATP), % of control: 77.4; call: inactive

What is on record for Hjurp (Holliday junction recognition protein) #1?
GFP, % of control: 131; viability (ATP), % of control: 153; call: active

How did the screen score Hjurp (Holliday junction recognition protein) #2?
GFP, % of control: 70.9; viability (ATP), % of control: 92.4; call: inactive

With Hjurp (Holliday junction recognition protein) #3, how do the results read?
GFP, % of control: 92.4; viability (ATP), % of control: 116; call: inactive

How did the screen score Znrd2 (zinc ribbon domain containing 2) #1?
GFP, % of control: 90.6; viability (ATP), % of control: 57.8; call: inactive

With Znrd2 (zinc ribbon domain containing 2) #2, how do the results read?
GFP, % of control: 57.9; viability (ATP), % of control: 64.1; call: inactive

For Znrd2 (zinc ribbon domain containing 2) #3, what was measured?
GFP, % of control: 78.6; viability (ATP), % of control: 54.6; call: inactive

For Gtpbp4 (GTP binding protein 4) #1, how do the results read?
GFP, % of control: 93.5; viability (ATP), % of control: 52.6; call: inactive

What is on record for Gtpbp4 (GTP binding protein 4) #2?
GFP, % of control: 132; viability (ATP), % of control: 83.7; call: active

With Gtpbp4 (GTP binding protein 4) #3, how do the results read?
GFP, % of control: 71.9; viability (ATP), % of control: 56.7; call: inactive

Which result is listed for Tmem64 (transmembrane protein 64) #1?
GFP, % of control: 70.2; viability (ATP), % of control: 71.3; call: inactive

What did the screen give for Tmem64 (transmembrane protein 64) #2?
GFP, % of control: 56.7; viability (ATP), % of control: 51.9; call: inactive

What is on record for Tmem64 (transmembrane protein 64) #3?
GFP, % of control: 69.9; viability (ATP), % of control: 73.1; call: inactive

Which result is listed for Lrat #1?
GFP, % of control: 84; viability (ATP), % of control: 71.3; call: inactive

What is on record for Lrat #2?
GFP, % of control: 24.5; viability (ATP), % of control: 94.7; call: inactive

How did the screen score Lrat #3?
GFP, % of control: 101; viability (ATP), % of control: 115; call: inactive

For Hrh4 (histamine receptor H4) #1, how do the results read?
GFP, % of control: 156; viability (ATP), % of control: 86.3; call: active

What is on record for Hrh4 (histamine receptor H4) #2?
GFP, % of control: 84.8; viability (ATP), % of control: 91.4; call: inactive

What is on record for Hrh4 (histamine receptor H4) #3?
GFP, % of control: 72.7; viability (ATP), % of control: 70.2; call: inactive

Which result is listed for Igf2bp1 (insulin-like growth factor 2 mRNA binding protein 1) #1?
GFP, % of control: 70.5; viability (ATP), % of control: 79.8; call: inactive

For Igf2bp1 (insulin-like growth factor 2 mRNA binding protein 1) #2, what was measured?
GFP, % of control: 81; viability (ATP), % of control: 96.7; call: inactive

For Igf2bp1 (insulin-like growth factor 2 mRNA binding protein 1) #3, how do the results read?
GFP, % of control: 94.6; viability (ATP), % of control: 114; call: inactive
